Reference: paper doi:10.1101/2024.12.13.628388
No constants are given. Whether binding was seen depends on the method and setting. Binding seen in cells or lysates may run through a third protein. Binding can be weak; no strength is given. For some assays here: Tags and fused reporters may be left off the sequences shown.

Key:
[1] = biological target: T1, Nuclear dot protein (NDP) 52, endogenous (human (endogenous in A549)) (UniProt Q13137); experiment: co-IP
T1 sequence: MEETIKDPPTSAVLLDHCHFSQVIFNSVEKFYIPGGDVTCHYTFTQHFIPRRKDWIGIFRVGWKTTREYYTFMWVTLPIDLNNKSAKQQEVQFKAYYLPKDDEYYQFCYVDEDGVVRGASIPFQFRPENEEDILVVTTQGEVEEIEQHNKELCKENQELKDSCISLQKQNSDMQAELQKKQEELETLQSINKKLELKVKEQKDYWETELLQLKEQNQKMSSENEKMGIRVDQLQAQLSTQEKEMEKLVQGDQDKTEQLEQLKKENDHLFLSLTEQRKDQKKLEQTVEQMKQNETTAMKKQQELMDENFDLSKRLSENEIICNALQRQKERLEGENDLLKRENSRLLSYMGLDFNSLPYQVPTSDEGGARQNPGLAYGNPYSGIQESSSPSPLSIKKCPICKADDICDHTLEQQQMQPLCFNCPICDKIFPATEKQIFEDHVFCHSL

Myc-NDP52 = biological target: T2, Myc-NDP52 (UniProt Q13137); experiment: co-IP
T2 sequence: T1 sequence

| Substance | binding [1] | binding (Myc-NDP52) |
| --- | --- | --- |
| HA-2C (EMCV non-structural protein 2C) (Encephalomyocarditis virus (EMCV)) | binds | – |
| HA-VP2 (EMCV structural protein VP2) (Encephalomyocarditis virus (EMCV)) | binds | – |
| Myc-3C (EMCV 3C protease) (Encephalomyocarditis virus (EMCV)) (enzyme) | binds | – |
| Myc-VP1 (EMCV structural protein VP1) (Encephalomyocarditis virus (EMCV)) | binds | – |
| Myc-VP3 (EMCV structural protein VP3) (Encephalomyocarditis virus (EMCV)) | no binding | – |
| eGFP-2C(1-102) (Encephalomyocarditis virus (EMCV)) (domain or fragment) | – | binds |
| eGFP-2C(103-243) (Encephalomyocarditis virus (EMCV)) (domain or fragment) | – | no binding |
| eGFP-2C(244-326) (Encephalomyocarditis virus (EMCV)) (domain or fragment) | – | no binding |
